PubChem BioAssay AID1671195 – Yale University, 2021

Purpose: 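Knockdowns that increase or decrease uptake of fluorescent LDL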 (primary screen)
Cell system: human Huh7 hepatoma cells
Reagent: siRNA pool against human genes, 18 nM
Duration: about 2 to 2.5 days of knockdown, then 8 h LDL uptake
Challenge: DiI-labelled LDL at 30 µg/ml for 8 h, in lipoprotein-deficient serum medium
Measured: 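Per-cell DiI-LDL intensity by automated imaging; well means scaled to the plate median and given as a robust z-score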
Scale: robust z-score: higher = more LDL uptake after knockdown
Rule for the call: 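Active when two or more replicates show a robust z-score above 2 or below -2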
Shown is one part, drawn at random, of about 22,000 reagents tested. About 1,510 of them (6.9%) count as active. 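Active includes knockdowns raising or lowering LDL uptake; positive z-scores mean more uptake, negative mean less.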 A number with no mark means an inactive call.

gene | robust z-score, replicate 1 | robust z-score, replicate 2 | robust z-score, replicate 3
MFSD11 | -1.37 | -1.01 | -1.06
SPACA3 | -0.0706 | -0.177 | -0.534
LOC400888 (retired record) | -1 | -1.03 | -0.938
SLC39A6 | -1.23 | -0.255 | -0.812
ANTXR2 | -0.11 | -0.833 | -0.046
LOC400577 (retired record) | -0.0413 | 0.144 | 0.184
RPS4XP13 | -0.433 | -0.167 | -0.412
LCE5A | -0.508 | -0.472 | -0.647
DSG2 | -0.177 | 0.174 | 0.438
GATD3 | -1.4 | 0.158 | 1.66
CAPN7 | 0.263 | 0.988 | 0.905
CEP104 | 0.255 | 0.418 | -0.62
CLPS | 1.98 (active) | 2.27 | 2.17
MAPK10 | 0.139 | 0.506 | 0.236
PARN | -1.52 | -1.37 | -1.02
BYSL | -0.99 | -0.583 | -1.16
LOC442451 (retired record) | -0.893 | -0.904 | -0.739
PPIL1 | 0.412 | -0.109 | 0.301
CARD8 | -0.283 | -0.759 | -0.621
ULBP1 | 0.217 | -0.177 | -0.247
TCP10L2 | 0.953 | 0.503 | 0.825
CCDC14 | 0.76 | 0.838 | 0.59
PIGS | 2.61 (active) | 3.26 | 3
TXNDC11 | 0.567 | 0.391 | 0.293
ANK2 | -0.112 | 0.636 | 1.83
LOC283604 (retired record) | -0.42 | -0.43 | -0.507
SMARCA5 | 0.0983 | -0.689 | -0.0274
PPM1N | 1.68 | 1.12 | 1.84
NPLOC4 | -0.545 | -1.13 | -0.744
FBXO11 | -0.021 | -0.0182 | 0.527
PON2 | -0.665 | -0.441 | -0.549
DKFZp564H213 (retired record) | 0.293 | -0.271 | 0.0267
ZC3H4 | 2.01 | 0.913 | 1.07
HCAR1 | 0.253 | -1.26 | -0.62
ARHGAP21 | -1.48 | -1.46 | -1.25
OR4P4 | -0.258 | -0.295 | -0.767
LOC440160 (retired record) | 1.64 | 1.62 | 2.07
CDK6 | -0.337 | -0.347 | -0.0469
LOC441916 (retired record) | -0.626 | -0.773 | -0.801
GMCL2 | -1.16 | -1.23 | -0.756
LOC387824 (retired record) | -0.0342 | 0.185 | 0.226
SERPINB2 | 0.249 | -0.533 | -0.0147
ZSCAN32 | 0.505 | 0.218 | 0.826
OTUD5 | -0.196 | 0.977 | -0.661
LOC441819 (retired record) | -1.44 | -1.46 | -1.84
DCBLD1 | -1.07 | -0.796 | -0.679
SHPK | 0.867 | -0.000446 | 1.58
OLFM1 | -2.15 | -0.657 | -1.44
ZNF77 | -1.2 | -1.27 | -0.767
MMAB | 2.18 (active) | 2.5 | 2.5
EIF4A2 | 1.92 (active) | 2.3 | 2.65
RHBDF1 | -0.0977 | -0.834 | -0.513
ZNF536 | -0.436 | -0.363 | -0.562
SPMIP10 | -0.413 | -0.0831 | -0.28
LINC00922 | 0.864 | 0.659 | 0.257
ADRA1A | 0.483 | -0.579 | -0.263
SLC35H1 | -0.936 | -0.911 | -0.832
PDZRN4 | -0.744 | 2.58 | 0.557
LOC442002 (retired record) | -1.62 | -1.08 | -1.02
SMOX | -0.533 | -0.279 | 0.0536
WDR24 | 0.14 | 0.211 | -0.324
LOC440003 (retired record) | 1.96 | 1.73 | 1.57
IGHV3OR16-8 | 1.62 (active) | 2.75 | 2.78
ZNF354B | -0.325 | -0.478 | 0.629
MRS2 | 0.0919 | 0.0137 | 0.397
GNGT2 | -0.382 | 0.191 | 0.113
RRP8 | -2 (active) | -0.0758 | -2.38
BPIFA3 | 0.69 | 0.231 | 1.07

Part of the list above in another layout:
| gene | robust z-score, replicate 1 | robust z-score, replicate 2 | robust z-score, replicate 3 |
| --- | --- | --- | --- |
| CARD8 | -0.283 | -0.759 | -0.621 |
| ULBP1 | 0.217 | -0.177 | -0.247 |
| TCP10L2 | 0.953 | 0.503 | 0.825 |
| CCDC14 | 0.76 | 0.838 | 0.59 |
| PIGS | 2.61 (active) | 3.26 | 3 |
| TXNDC11 | 0.567 | 0.391 | 0.293 |
| ANK2 | -0.112 | 0.636 | 1.83 |
| LOC283604 (retired record) | -0.42 | -0.43 | -0.507 |
| SMARCA5 | 0.0983 | -0.689 | -0.0274 |
| PPM1N | 1.68 | 1.12 | 1.84 |
